Earlier results, collected in patent US20020168396A1 (priority 2001, published 2002).
For at least one compound, name, drawing or mass did not settle the structure.

Details: cited from earlier work

## O=[N+]([O-])OCC(CO[N+](=O)[O-])O[N+](=O)[O-] [NTG, nitroglycerine]
  increase in free flow: 160%
